These are yes or no findings as the source states them, for the method shown. In cells and extracts the contact can be indirect. Some results given as binding are weak or reduced against the parent protein; the word gives no strength.
Biological target: T1, CAVIN1 (human (endogenous in HeLa)) (UniProt Q6NZI2)
T1 sequence: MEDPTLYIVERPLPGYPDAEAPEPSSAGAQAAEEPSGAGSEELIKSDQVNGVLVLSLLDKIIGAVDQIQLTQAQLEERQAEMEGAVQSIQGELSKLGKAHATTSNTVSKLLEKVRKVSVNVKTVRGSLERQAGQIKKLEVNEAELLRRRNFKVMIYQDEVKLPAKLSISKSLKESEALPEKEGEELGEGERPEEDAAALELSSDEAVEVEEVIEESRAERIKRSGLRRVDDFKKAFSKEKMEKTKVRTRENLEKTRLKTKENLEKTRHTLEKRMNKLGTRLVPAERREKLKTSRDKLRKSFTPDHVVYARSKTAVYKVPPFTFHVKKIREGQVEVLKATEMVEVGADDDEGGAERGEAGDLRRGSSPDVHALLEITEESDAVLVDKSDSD
Experiment: co-IP

B1: nuclear factor-erythroid factor 2-related factor 2 (NRF2) (protein, UniProt Q16236 1-605)
chain: MMDLELPPPGLPSQQDMDLIDILWRQDIDLGVSREVFDFSQRRKEYELEKQKKLEKERQEQLQKEQEKAFFAQLQLDEETGEFLPIQPAQHIQSETSGSANYSQVAHIPKSDALYFDDCMQLLAQTFPFVDDNEVSSATFQSLVPDIPGHIESPVFIATNQAQSPETSVAQVAPVDLDGMQQDIEQVWEELLSIPELQCLNIENDKLVETTMVPSPEAKLTEVDNYHFYSSIPSMEKEVGNCSPHFLNAFEDSFSSILSTEDPNQLTVNSLNSDATVNTDFGDEFYSAFIAEPSISNSMPSPATLSHSLSELLNGPIDVSDLSLCKAFNQNHPESTAEFNDSDSGISLNTSPSVASPEHSVESSSYGDTLLGLSDSEVEELDSAPGSVKQNGPKTPVHSSGDMVQPLSPSQGQSTHVHDAQCENTPEKELPVSPGHRKTPFTKDKHSSRLEAHLTRDELRAKALHIPFPVEKIINLPVVDFNEMMSKEQFNEAQLALIRDIRRRGKNKVAAQNCRKRKLENIVELEQDLDHLKDEKEKLLKEKGENDKSLHLLKKQLSTLYLEVFSMLRDEDGKPYSPSEYSLQQTRDGNVFLVPKSKKPDVKKN
binding: binds

Source: publication doi:10.1101/2021.06.09.447684
